Measured values taken from patent publication US10857155B2, “Compounds targeting proteins, compositions, methods, and uses thereof” (BioTheryX, Inc., priority 2017, dated 2020).
For some of these results: At least one structure is not confirmed: it was looked up by name or label, or the drawing left a doubt. Some of these results come from one statement about several compounds together. Some compounds share one range, which may span the group rather than tell each member.

Columns and labels:
Type in all cases: cell-based
[1] = tested on: Molm-13 cells; experiment: Cell viability assay (CellTiter-Glo), Molm-13 cells; conditions: 1 μM (FIG. 5)
Description: FIG. 5 represents antiproliferative activity in Molm-13 cells. The cells were incubated with Compound 1, 2, or 3 (at the indicated concentration), DMSO, or pomalidomide. Compound activity was measured based on the signal from remaining viable cells.
Molm-13 cells were cultivated in RPMI-1640 (10% FBS/1% pen-strep) and were plated in white walled 96-well plates at 20,000 cells/well. H1048 cells were cultured in DMEM:F12 media supplemented with 5% fetal bovine serum, insulin, transferrin, sodium selenite, hydrocortisone, estradiol, penicillin and streptomycin, and were plated in white walled 96-well plates at 20,000 cells/well.
Cells were treated with compound at the indicated concentration or DMSO (control) and the cultures were incubated for 3 days at 37° C. and 5% CO2. Following the incubation period, 100 μL of CellTiterGlow (CTG) reagent (CellTiter-Glo® Luminescent Cell Viability Assay, Promega (Madison, Wis.)) was added to each well. Following a 10 min incubation with shaking, luminescence was measured using a Victor Wallac Luminometer.

[2] = tested on: IL-6; experiment: IL-6 in LPS-induced PBMCs / CD14+ monocytes, Meso Scale assay; conditions: LPS-stimulated PBMCs, 1 uM (FIG. 3)
Description: (§1) FIG. 3 represents the activity against IL-6 in CD14, monocytes, plated in 96 well plates and pretreated with Compounds 1, 2, or 3, or pomalidomide, for 1 h and then induced with 100 ng/mL LPS for 18-24 h. Cytokines were measured according to MesoScale protocol. Negative control wells were treated with DMSO. Cells were treated with compound (at the indicated concentrations) or 10 μM pomalidomide. Compound activity was measured as a percentage of LPS-induced activity.
(§2) Either frozen primary blood mononuclear cells (PBMCs) or frozen CD14+ mobilized peripheral blood monocytes were purchased from AllCells (PB003F, Normal Peripheral Blood MNC (Alameda, Calif.)). Cells were quick thawed, washed 1-time with RPMI-1640 (10% FBS/1% Pen-Strep) and plated in 96 well plates at 200,000 cells per well. Cells were pretreated with DMSO only, pomalidomide or the indicated compounds for 1 h and then induced with 100 ng/mL lipopolysaccharide (LPS) for 18-24 h. The supernatant was analyzed for IL-1 beta, IL-6, and TNF-alpha, using Meso Scale assay according to manufacturer's protocol. The negative control wells were treated with DMSO.
(§3) Compound activity is measured as fold difference from the DMSO control. Compounds 1, 2, and 3 each reduced expression of IL-1-b in LPS-stimulated PBMCs by over 80% at 1 uM, relative to a just under 80% reduction with pomalidomide at 10 μM (FIG. 2).

[3] = tested on: TNF-α; experiment: TNF-alpha in LPS-induced PBMCs / CD14+ monocytes, Meso Scale assay; conditions: LPS-stimulated PBMCs, concentration not printed (FIG. 4)
Description: as §1, with “FIG. 4” for “FIG. 3”, “against TNF-alpha” for “against IL-6”, “protocol. The negative” for “protocol. Negative”
as §2, §3

[4] = tested on: IL-1β; experiment: IL-1 beta in LPS-induced PBMCs / CD14+ monocytes, Meso Scale assay; conditions: LPS-stimulated PBMCs, 1 uM (FIG. 2)
Description: as §1, with “FIG. 2” for “FIG. 3”, “against IL-1-beta” for “against IL-6”, “in CD14” for “in CD14,”, “DMSO.” for “DMSO. Cells were treated with compound (at the indicated concentrations) or 10 μM pomalidomide.”
as §2, §3

| Compound | effect on cell viability [1] | reduction of IL-6 levels [2] | reduction of expression of TNF-α [3] | reduction of expression of IL-1-b [4] |
| --- | --- | --- | --- | --- |
| Cc1ccc(NC(=O)NCc2ccc3c(c2)CN([C@H]2CCCC(=O)NC2=O)C3=O)cc1Cl [Compound 1] | reduced cell viability | over 90% | 90-95% | over 80% |
| Cc1ccc(NC(=O)NCc2ccc3c(c2)CN(C2CCCC(=O)NC2=O)C3=O)cc1 (stereo not shown) [Compound 2] |  | over 90% | 90-95% | over 80% |
| O=C1CCCC(N2Cc3cc(CNC(=O)Nc4cccc(Cl)c4)ccc3C2=O)C(=O)N1 (stereo not shown) [Compound 3] |  | over 90% | 90-95% | over 80% |
